Results on 38 compounds are retold here after PubChem BioAssay AID2685 (National Center for Advancing Translational Sciences (NCATS), 2010).

Each structure is given as a SMILES string. This is one part of the list. The main result of the screen is listed elsewhere. These columns were measured beside it and carry no call. The list favours compounds with an active or inconclusive main result. Words in brackets tell the shape of the fitted curve; partial curves, single points and poor fits give uncertain potencies.

This assay in a line: qHTS Assay for Lipid Storage Modulators in Drosophila S3 Cells.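 As to cell number change: cells counted by Cell Tracker Red CMTPX staining in the red channel.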 The following applies: BODIPY lipid droplet fluorescence, 18-24 h; for cell number change: measured here: cell count max response, cells fed with added oleic acid. An outline of the steps: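 Laser-scanning cytometry quantifies lipid droplet accumulation (500–530 nm total intensity; droplet/cell object ratio) in oleic acid-fed (400 uM added) Drosophila S3 cells treated with a concentration series. 20 uM Triacsin C defined 100% inhibition.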

Where [1] appears, read: measured here: cell number channel AC50, cells fed with added oleic acid.
Setting [2] is: measured here: lipid fluorescence (Fed channel) AC50, cells fed with added oleic acid.

For the compound `O=C(CCC(=O)N1CCOCC1)Nc1ccc(Cl)c(Cl)c1`, the cell number change was 34%. Moreover, the AC50 under setting [1] is 35.5 µM [rising, single point]. The AC50 under setting [2] is 2 µM [rising, partial curve].
Regarding `Cc1c(Cc2ccccc2)c(=O)oc2c(C)c(OCc3nn[nH]n3)ccc12`, the cell number change came out at 13.6%. In addition, under setting [2], the AC50 is 29.1 µM [falling, single point].
For `O=c1c2c3c(sc2nc2n1N=C(c1cccs1)CS2)CCCC3`, the cell number change was determined as 27.5%. In addition, under setting [2], the AC50 is 5.8 µM [falling, full curve, poor fit].
Consider `CCOc1ncccc1C(=O)OCC(=O)N(CC(C)C)c1c(N)n(Cc2ccccc2)c(=O)[nH]c1=O`, for which the cell number change amounted to 7.23%.
Same read-out and setting: next, `O=C(OCc1nc2ccsc2c(=O)[nH]1)c1ccccc1`: 1%.
For the compound `O=C(NCc1cccnc1)c1ccccc1NS(=O)(=O)c1ccc(F)cc1`, the cell number change worked out at 20.9%. Further, under setting [1], the AC50 is 4.11 µM [rising, partial curve, poor fit]. The AC50 under setting [2] was 6.51 µM [rising, single point].
`CC(C)n1nnnc1SCC(=O)N1N=C(c2cccs2)CC1c1cccs1` (centres undefined): the cell number change was -8.97%.
Still for that read-out and setting: with `CCNC(=O)CC1C(=O)N(c2cccc(C)c2)C(=O)N1CCC(C)C` (centres undefined) the figure was 18%.
For `CCOc1ccc(S(=O)(=O)N2CCCCC2)cc1NC(=O)c1c(CC)noc1C`, the cell number change turned out to be 6.78%. Moreover, the AC50 under setting [1] was 6.51 µM [rising, single point].
Regarding `COc1cc(S(=O)(=O)N2CC(=O)Nc3ccccc32)ccc1NC(C)=O`, the cell number change is 7.92%.
For the compound `CCOc1ncccc1C(=O)OCC(=O)NC(=O)c1ccccc1`, the cell number change was 9.21%. Moreover, the AC50 under setting [2] is 6.51 µM [falling, single point].
Consider `COCCCN(C(C)=O)c1nc(-c2ccccc2)cs1`, for which the AC50 under setting [1] is 3.66 µM [rising, single point] and the AC50 under setting [2] was 0.82 µM [rising, single point].
Take `COc1ccc(CN2CCNC(=O)C2CC(=O)NCCC2=CCCCC2)c(F)c1` (centres undefined): under setting [2], the AC50 was 29.1 µM [falling, partial curve, poor fit].
For the compound `C/C(=C\c1ccc(N)cc1)c1nc2ccccc2[nH]1`, the cell number change is -21.2%. Further, the AC50 under setting [2] is 5.8 µM [falling, partial curve, poor fit].
Consider `COc1ccc(CNC(=O)CSc2nc3ccccc3n2C(C)=O)cc1`, for which the cell number change is 10.9%. For the same compound, the AC50 under setting [1] was 1.64 µM [rising, partial curve, poor fit]. Moreover, the AC50 under setting [2] was 29.1 µM [rising, single point].
In the case of `CCOc1ncccc1C(=O)Nc1ccc(S(=O)(=O)Nc2nccs2)cc1`, the cell number change was determined as 10.2%. Moreover, under setting [2], the AC50 is 5.17 µM [rising, partial curve, poor fit].
For the compound `COc1ccc(NC(=O)c2oc3ccccc3c2NC(=O)c2ccco2)cc1`, the cell number change was found to be 95.2%. Further, the AC50 under setting [1] is 1.84 µM [rising, full curve]. Also, under setting [2], the half-maximal activity concentration (AC50) was 16.4 µM [rising, partial curve].
In the case of `C[C@H](NC(=O)c1nc[nH]c1C(=O)N[C@@H](Cc1ccccc1)C(=O)OCc1ccccc1)C(=O)OCc1ccccc1`, the cell number change worked out at 151%. Moreover, the AC50 under setting [1] was 20.6 µM [rising, single point].
Take `CCCCn1c(N)c(N(CC)C(=O)c2ccccc2C)c(=O)[nH]c1=O`: the cell number change amounted to 17%.
On to `CCCCN(C)S(=O)(=O)c1ccc(C(=O)N(CCN(C)C)c2nc3ccc(C)cc3s2)cc1`, for which the cell number change was 0.726%.
In the case of `Cc1nc2cccc(C(=O)NCc3ccccc3)c2o1`, the cell number change was determined as 9.84%. The half-maximal activity concentration (AC50) under setting [2] is 23.1 µM [rising, single point].
With `CCc1nnc(NC(=O)Nc2ccccc2OC)s1`, the cell number change was determined as 39.7%. For the same compound, under setting [1], the AC50 was 23.1 µM [rising, single point]. Besides, the concentration at half-maximal activity (AC50) under setting [2] is 0.651 µM [rising, single point].
On to `Cn1c(-c2csc(-c3cccc(C(F)(F)F)c3)n2)n[nH]c1=S`, for which the cell number change is -12.4%. Further, the AC50 under setting [1] is 6.51 µM [falling, single point]. Besides, the AC50 under setting [2] is 6.51 µM [falling, single point].
Turning to `O=c1c([N+](=O)[O-])c(NCCN2CCCCCC2)c2ccccc2n1-c1ccccc1`, the cell number change turned out to be 83.3%. In addition, the AC50 under setting [1] is 29.1 µM [rising, single point].
With `N#Cc1ccccc1Sc1ccccc1C(=O)OCC(N)=O`, under setting [2], the concentration at half-maximal activity (AC50) is 0.651 µM [rising, single point].
For the compound `CCOC(=O)C1CCN(c2ccc([N+](=O)[O-])c(C(C)=O)c2)CC1`, the cell number change is -11.4%.
Turning to `COc1cc(NS(=O)(=O)c2ccc(NC(=S)NC(=O)C(C)(C)C)cc2)nc(OC)n1`, the cell number change is -108%. In addition, under setting [1], the AC50 was 25.9 µM [falling, partial curve]. Further, the AC50 under setting [2] is 16.4 µM [falling, partial curve].
Turning to `CCOc1ccc(Nc2c3ccccc3nc3ccccc23)cc1`, the cell number change was -45.9%. For the same compound, the AC50 under setting [1] was 16.4 µM [falling, single point]. Also, under setting [2], the AC50 is 20.6 µM [falling, single point].
`CN(C)C(=O)c1ccc(NC(=O)COc2ccc([N+](=O)[O-])cc2)cc1`: the cell number change was 47.7%. The AC50 under setting [1] was 29.1 µM [rising, single point]. The AC50 under setting [2] was 29.1 µM [rising, single point].
Consider `COc1ccc(NC(=O)C2CCCN2C(=O)NC2CCCCC2)c(OC)c1` (centres undefined), for which the cell number change was determined as 9.83%. Moreover, the AC50 under setting [2] is 4.11 µM [rising, single point].
For the compound `Cc1ccc(-c2nc(CN(C)C)cc(CN(C)C)c2O)cc1`, the cell number change is -59.4%. Moreover, the half-maximal activity concentration (AC50) under setting [1] was 29.1 µM [falling, single point]. In addition, the AC50 under setting [2] was 0.146 µM [falling, full curve, poor fit].
In the case of `CCCN(CC(=O)Nc1ccccc1C)C(=O)C1CCN(S(=O)(=O)c2ccccc2C(F)(F)F)CC1`, the AC50 under setting [1] was 2.59 µM [rising, partial curve].
On to `O=C(CC1Oc2ccccc2NC1=O)NCCCN1CCCC1=O` (centres undefined), for which the cell number change is 9.4%.
On to `O=C(NC1CC1)C1CCN(C2CCN(C(=O)CSc3ccccc3)CC2)CC1`, for which the cell number change was 27.6%.
`O=C(N/N=C/c1cc2ccccc2nc1Cl)c1ccncc1`: the cell number change was found to be 29.3%. In addition, under setting [1], the AC50 is 0.366 µM [rising, full curve, poor fit].
Turning to `S=c1[nH]nc(CSCc2ccccc2Cl)n1-c1ccccc1`, the cell number change stood at 31.6%. Under setting [1], the AC50 is 8.2 µM [rising, partial curve, poor fit]. Also, the AC50 under setting [2] is 20.6 µM [rising, single point].
With `[O-][n+]1onc2c1CCc1c-2nc(-c2ccccc2)n1OCc1ccccc1`, the cell number change stood at 24.7%. Further, the AC50 under setting [2] was 29.1 µM [rising, single point].
Turning to `CC1Cc2cc(/C(O)=C3/C(=O)C(=O)N(CCN4CCOCC4)C3c3cccc(O)c3)ccc2O1` (centres undefined), the cell number change is 2.86%. Also, the AC50 under setting [2] is 0.259 µM [falling, partial curve, poor fit].
